Source: PMC6270420, “Antibacterial Activity of Salicylanilide 4-(Trifluoromethyl)benzoates” (Molecules, 2013)

tested on: HepG2 cells; assay: Cytotoxicity evaluation (CellTiter 96 MTS); assay type: cell-based, human
Procedure: Seven esters and their parent salicylanilides with the most robust antimicrobial activity were tested for cytotoxicity in the human hepatocellular liver carcinoma cell line HepG2 (passages 21–24; ECACC, Salisbury, UK) using a standard colorimetric method measuring a tetrazolium salt reduction (CellTiter(R) 96 AQueous One Solution Assay, Promega G3580, Madison, WI, USA).
The cells were routinely cultured in Minimum Essentials Eagle Medium (Sigma-Aldrich, Darmstadt, Germany) supplemented with 10% foetal bovine serum (PAA; Biotech, Prague, Czech Republic), 1% of L-glutamine solution (Sigma-Aldrich), and non-essential amino acids solution (Sigma-Aldrich) in a humidified atmosphere containing 5% CO2 at 37 °C. For subculturing, the cells were harvested after trypsin/EDTA (Sigma-Aldrich) treatment at 37 °C. The cells treated with the tested substances were used as experimental groups. Untreated HepG2 cells were used as control groups.
The cells were seeded in density 1 × 10^4 cells per well in a 96-well plate with microscopic control. Next day, the cells were treated with each of the tested substances. […] The most of the tested compounds were prepared in incubation concentrations of 0.01–20 µM in triplicates. 4-(Trifluoromethyl)benzoic acid was applied in the concentrations of 10–4,000 µM in triplicates. The following types of controls were included: determination of 100% viability and 0% viability (the cells treated by 10% DMSO), no cell control and vehiculum controls. These checking samples were prepared in triplicates.
The treated cells were incubated together with controls at 37 °C for 24 h in 5% CO2 atmosphere. After this time reagent from the kit CellTiter 96 AQueous One Solution Cell Proliferation Assay was added. […] The tested plate was incubated for 2 h at 37 °C and 5% CO2 and after this time, the absorbance was recorded at 490 nm using a 96-well plate reader (TECAN, Infinite M200, Grödig, Austria). […]

Row | Structure (SMILES) | IC50 of ester relative to parent salicylanilide (higher IC50)
1 | O=C(Oc1ccc(Cl)cc1C(=O)Nc1ccc(Cl)c(Cl)c1)c1ccc(C(F)(F)F)cc1 [1e] | 3.7 fold
2 | O=C(Oc1cc(Cl)ccc1C(=O)Nc1ccc(C(F)(F)F)cc1)c1ccc(C(F)(F)F)cc1 [1p] | 3.7 fold
3 | O=C(Oc1ccc(Br)cc1C(=O)Nc1ccc(C(F)(F)F)cc1)c1ccc(C(F)(F)F)cc1 [1r] | 1.2 fold
